Results are given in words; binding and its absence hold for the method and conditions named. For some of these results: Binding seen in cells or lysates may run through a third protein. Some binding calls cover weakened binding; strength is not graded here. For some of these results: Sequences can lack the tags named with a protein.
How the values were obtained:
[1] = biological target: T1, myc-tagged mAKAP 1286 to 1833 (rat) (UniProt Q9WVC7); assay: co-immunoprecipitation with myc-tag antibody, heterologous cells
T1 sequence: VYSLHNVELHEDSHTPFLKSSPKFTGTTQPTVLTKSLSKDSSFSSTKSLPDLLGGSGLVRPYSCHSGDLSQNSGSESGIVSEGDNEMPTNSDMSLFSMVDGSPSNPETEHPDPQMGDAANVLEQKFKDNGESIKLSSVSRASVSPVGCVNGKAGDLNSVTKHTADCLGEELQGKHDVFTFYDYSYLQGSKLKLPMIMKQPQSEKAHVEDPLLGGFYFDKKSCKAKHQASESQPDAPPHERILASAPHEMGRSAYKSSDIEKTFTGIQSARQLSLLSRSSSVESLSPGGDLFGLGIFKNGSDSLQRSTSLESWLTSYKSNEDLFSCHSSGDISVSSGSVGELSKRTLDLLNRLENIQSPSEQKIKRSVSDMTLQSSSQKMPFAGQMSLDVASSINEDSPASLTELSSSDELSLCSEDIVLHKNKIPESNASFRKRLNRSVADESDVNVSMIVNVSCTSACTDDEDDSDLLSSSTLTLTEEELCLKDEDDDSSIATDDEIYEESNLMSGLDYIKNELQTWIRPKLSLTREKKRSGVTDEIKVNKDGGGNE

Chains of the proteins cited; added tags and fusions are not shown. Lines headed by an entry give the natural chain unless they say otherwise; changes in a name come on top.
UniProt Q15349: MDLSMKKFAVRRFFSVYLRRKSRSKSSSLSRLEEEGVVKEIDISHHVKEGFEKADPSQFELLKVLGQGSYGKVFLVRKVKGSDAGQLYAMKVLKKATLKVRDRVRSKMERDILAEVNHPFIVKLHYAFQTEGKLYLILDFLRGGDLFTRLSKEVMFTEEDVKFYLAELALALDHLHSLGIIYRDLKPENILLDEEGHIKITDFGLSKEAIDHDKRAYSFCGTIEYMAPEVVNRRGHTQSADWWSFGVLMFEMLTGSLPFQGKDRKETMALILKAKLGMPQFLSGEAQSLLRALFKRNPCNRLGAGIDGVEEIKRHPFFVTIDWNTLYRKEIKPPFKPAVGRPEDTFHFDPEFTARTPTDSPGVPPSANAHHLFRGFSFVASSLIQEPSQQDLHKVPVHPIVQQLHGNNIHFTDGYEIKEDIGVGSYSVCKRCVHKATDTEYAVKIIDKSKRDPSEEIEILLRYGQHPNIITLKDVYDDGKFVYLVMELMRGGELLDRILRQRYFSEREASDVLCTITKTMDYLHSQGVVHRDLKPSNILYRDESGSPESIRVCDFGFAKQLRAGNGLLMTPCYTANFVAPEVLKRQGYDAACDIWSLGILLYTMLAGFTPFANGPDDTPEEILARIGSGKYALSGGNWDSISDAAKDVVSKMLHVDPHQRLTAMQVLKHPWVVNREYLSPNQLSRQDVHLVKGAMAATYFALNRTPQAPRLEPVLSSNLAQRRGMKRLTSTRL

[2] = biological target: full-length mAKAPβ (muscle A-kinase anchoring protein, beta alternatively-spliced form) (rat) (UniProt Q9WVC7); assay: co-immunoprecipitation, HA-RSK co-expressed with mAKAP in HEK293 cells
[3] = biological target: mAKAPα (muscle A-kinase anchoring protein, alpha alternatively-spliced form) (rat) (UniProt Q9WVC7); assay: as above
[4] = biological target: T2, bacterially expressed His-tagged mAKAP 1286 to 1833 (rat) (UniProt Q9WVC7); assay: SPR (BIAcore T100), His-mAKAP 1286-1833 immobilised, His-RSK3 analyte
T2 sequence: T1 sequence

Substance | binding [1] | binding [2] | binding [3] | binding [4]
HA-tagged RSK3 (type 3 p90 ribosomal S6 kinase) (from UniProt Q15349 1-733) (enzyme) | binds | binds | binds | –
bacterially expressed His-tagged full-length RSK3 (from UniProt Q15349 1-733) (enzyme) | – | – | – | binds
